Data as given in publication PMC11730294.
These are yes or no findings as the source states them, for the method shown. Binding seen in cells or lysates may run through a third protein. Some binding calls cover weakened binding; strength is not graded here.

Amino acid sequences for entries named in this document (tags omitted). A change or cut given only in a name is not applied to a line headed by its entry.
UniProt Q01628, whole entry: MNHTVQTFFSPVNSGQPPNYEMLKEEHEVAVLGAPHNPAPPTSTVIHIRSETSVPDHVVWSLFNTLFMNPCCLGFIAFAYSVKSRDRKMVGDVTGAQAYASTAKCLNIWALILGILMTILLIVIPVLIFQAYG

Target: T1, endogenous STX8 (HEK293T) (human (endogenous in HEK293T)) (UniProt Q9UNK0)
T1 sequence: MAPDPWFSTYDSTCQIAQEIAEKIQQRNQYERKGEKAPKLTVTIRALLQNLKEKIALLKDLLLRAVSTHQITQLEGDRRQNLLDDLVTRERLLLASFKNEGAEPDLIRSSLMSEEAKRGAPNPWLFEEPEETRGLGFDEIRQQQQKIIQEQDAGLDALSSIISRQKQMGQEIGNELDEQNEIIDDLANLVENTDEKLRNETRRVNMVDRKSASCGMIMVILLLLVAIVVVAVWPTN
Experiment: co-IP; HEK293T stably expressing Empty Vector, IFITM3 WT-FLAG or IFITM3 G95L-FLAG, inoculated with IAV or medium for 18 h; endogenous STX8 immunoprecipitated with anti-STX8; blot anti-STX8, anti-FLAG, anti-VAMP8, anti-VAMP7

| Substance | binding |
| --- | --- |
| IFITM3-FLAG G95L (from UniProt Q01628 1-133) | binds |
| IFITM3-FLAG WT (interferon-induced transmembrane protein 3) (from UniProt Q01628 1-133) | binds |
